The other results are listed elsewhere or left out.
Tests used:
Experiment in all cases: log2 fold change, soluble protein after heating vs DMSO (PISA); higher = thermal stabilisation; K562 lysate, 10 uM; active = over 0.2 and 3.5 SD of the protein, either way, in both replicates (recomputed)
lapatinib = compound: CS(=O)(=O)CCNCc1ccc(-c2ccc3ncnc(Nc4ccc(OCc5cccc(F)c5)c(Cl)c4)c3c2)o1 [lapatinib]
Summary of the method: (§1)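 Following dounce homogenisation of K562 pellets in PBS pH 7.4 with 1 mM MgCl2, crude extract at 1 mg/mL protein was incubated for 30 min with 10 μM compound. Aliquots were then heated for 3 min over 48°C-58°C and pooled, NP-40 was added to 0.5% at 4°C, and soluble protein was recovered as the supernatant at 21,000xg for 90 min. Channel-sum-equalised TMTpro 16plex LC-MS/MS quantified this protein. Each value, from duplicates, is a log-two fold change in thermal stability relative to solvent controls.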

Protein sequences, listed by entry. Tags and fused reporters are not part of them. Lines headed by an entry give the natural chain unless they say otherwise; changes in a name come on top.
UniProt Q96A57: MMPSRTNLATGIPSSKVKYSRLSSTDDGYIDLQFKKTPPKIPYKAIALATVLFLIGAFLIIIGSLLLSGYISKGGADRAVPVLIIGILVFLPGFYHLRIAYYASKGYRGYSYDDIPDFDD
UniProt Q5BJD5: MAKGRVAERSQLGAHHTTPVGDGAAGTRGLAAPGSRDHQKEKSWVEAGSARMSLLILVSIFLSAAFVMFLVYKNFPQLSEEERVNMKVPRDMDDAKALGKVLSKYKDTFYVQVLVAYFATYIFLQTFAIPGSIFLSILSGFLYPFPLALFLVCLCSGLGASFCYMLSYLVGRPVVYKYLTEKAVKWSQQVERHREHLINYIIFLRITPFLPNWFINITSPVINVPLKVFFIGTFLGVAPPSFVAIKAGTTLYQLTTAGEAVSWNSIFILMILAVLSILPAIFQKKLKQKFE
UniProt Q12767: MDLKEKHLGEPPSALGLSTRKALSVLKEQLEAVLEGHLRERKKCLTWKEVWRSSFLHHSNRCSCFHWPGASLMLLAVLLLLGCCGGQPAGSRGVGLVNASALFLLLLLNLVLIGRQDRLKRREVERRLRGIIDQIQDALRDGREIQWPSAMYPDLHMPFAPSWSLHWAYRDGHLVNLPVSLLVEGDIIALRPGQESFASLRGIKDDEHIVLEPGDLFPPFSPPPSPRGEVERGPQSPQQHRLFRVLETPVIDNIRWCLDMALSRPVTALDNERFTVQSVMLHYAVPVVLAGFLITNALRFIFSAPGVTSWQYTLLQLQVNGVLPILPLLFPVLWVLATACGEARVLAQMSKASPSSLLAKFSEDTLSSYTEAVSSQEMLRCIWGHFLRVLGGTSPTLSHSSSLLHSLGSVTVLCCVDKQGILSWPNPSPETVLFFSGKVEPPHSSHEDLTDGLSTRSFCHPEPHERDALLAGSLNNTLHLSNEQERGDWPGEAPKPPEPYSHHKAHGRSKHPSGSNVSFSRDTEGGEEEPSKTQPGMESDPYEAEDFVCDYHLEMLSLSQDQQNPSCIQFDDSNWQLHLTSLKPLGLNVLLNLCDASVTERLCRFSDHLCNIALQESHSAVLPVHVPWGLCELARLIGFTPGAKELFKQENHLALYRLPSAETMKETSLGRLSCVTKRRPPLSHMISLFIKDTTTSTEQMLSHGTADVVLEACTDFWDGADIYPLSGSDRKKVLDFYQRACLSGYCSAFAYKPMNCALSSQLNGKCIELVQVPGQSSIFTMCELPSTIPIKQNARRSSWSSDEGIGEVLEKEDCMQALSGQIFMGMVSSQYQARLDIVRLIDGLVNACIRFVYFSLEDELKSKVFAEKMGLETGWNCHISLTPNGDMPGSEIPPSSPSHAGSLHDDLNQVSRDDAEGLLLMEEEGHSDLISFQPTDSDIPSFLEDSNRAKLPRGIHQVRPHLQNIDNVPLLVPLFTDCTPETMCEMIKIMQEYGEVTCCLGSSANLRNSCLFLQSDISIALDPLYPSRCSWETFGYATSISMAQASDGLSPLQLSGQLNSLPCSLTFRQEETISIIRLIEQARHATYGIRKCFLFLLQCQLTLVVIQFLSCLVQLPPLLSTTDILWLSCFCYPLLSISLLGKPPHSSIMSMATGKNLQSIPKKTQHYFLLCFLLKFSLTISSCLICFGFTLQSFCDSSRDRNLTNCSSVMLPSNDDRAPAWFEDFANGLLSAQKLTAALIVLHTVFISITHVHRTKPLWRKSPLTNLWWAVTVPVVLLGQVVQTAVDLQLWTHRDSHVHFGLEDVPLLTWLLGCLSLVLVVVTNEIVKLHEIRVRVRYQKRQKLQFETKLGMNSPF
UniProt Q59H18: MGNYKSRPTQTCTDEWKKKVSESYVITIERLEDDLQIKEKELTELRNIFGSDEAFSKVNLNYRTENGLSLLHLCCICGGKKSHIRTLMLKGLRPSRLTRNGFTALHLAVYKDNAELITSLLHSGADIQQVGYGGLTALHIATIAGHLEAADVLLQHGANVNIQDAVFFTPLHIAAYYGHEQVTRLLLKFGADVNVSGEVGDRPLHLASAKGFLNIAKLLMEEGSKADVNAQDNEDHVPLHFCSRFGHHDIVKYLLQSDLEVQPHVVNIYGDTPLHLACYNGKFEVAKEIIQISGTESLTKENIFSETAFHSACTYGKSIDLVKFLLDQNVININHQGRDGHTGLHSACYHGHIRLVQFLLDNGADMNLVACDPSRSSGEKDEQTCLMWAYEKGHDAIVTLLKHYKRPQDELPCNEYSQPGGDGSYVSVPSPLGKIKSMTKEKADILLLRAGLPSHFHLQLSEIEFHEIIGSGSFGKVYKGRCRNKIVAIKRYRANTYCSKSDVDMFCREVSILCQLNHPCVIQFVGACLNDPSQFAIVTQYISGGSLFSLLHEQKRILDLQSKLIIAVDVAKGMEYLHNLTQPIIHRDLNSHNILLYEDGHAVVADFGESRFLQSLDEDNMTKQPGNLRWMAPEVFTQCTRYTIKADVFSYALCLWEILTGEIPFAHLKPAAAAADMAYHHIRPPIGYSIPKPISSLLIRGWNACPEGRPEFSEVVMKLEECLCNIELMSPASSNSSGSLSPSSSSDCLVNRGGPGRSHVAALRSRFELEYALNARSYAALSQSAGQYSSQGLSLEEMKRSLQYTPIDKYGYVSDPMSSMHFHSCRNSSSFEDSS
UniProt Q6ZT21: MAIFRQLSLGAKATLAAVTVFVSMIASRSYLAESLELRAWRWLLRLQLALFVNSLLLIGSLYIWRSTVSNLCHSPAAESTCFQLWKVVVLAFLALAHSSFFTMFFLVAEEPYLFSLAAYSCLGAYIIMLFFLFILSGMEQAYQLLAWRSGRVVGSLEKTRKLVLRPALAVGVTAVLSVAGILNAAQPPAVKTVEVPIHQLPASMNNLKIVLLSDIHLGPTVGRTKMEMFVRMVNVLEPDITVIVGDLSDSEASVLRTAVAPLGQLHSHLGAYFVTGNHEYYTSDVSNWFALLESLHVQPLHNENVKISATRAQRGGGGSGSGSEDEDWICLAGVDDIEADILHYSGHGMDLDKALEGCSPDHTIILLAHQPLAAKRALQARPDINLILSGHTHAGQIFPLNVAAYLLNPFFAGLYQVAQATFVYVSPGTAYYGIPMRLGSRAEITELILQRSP
UniProt Q96HA7: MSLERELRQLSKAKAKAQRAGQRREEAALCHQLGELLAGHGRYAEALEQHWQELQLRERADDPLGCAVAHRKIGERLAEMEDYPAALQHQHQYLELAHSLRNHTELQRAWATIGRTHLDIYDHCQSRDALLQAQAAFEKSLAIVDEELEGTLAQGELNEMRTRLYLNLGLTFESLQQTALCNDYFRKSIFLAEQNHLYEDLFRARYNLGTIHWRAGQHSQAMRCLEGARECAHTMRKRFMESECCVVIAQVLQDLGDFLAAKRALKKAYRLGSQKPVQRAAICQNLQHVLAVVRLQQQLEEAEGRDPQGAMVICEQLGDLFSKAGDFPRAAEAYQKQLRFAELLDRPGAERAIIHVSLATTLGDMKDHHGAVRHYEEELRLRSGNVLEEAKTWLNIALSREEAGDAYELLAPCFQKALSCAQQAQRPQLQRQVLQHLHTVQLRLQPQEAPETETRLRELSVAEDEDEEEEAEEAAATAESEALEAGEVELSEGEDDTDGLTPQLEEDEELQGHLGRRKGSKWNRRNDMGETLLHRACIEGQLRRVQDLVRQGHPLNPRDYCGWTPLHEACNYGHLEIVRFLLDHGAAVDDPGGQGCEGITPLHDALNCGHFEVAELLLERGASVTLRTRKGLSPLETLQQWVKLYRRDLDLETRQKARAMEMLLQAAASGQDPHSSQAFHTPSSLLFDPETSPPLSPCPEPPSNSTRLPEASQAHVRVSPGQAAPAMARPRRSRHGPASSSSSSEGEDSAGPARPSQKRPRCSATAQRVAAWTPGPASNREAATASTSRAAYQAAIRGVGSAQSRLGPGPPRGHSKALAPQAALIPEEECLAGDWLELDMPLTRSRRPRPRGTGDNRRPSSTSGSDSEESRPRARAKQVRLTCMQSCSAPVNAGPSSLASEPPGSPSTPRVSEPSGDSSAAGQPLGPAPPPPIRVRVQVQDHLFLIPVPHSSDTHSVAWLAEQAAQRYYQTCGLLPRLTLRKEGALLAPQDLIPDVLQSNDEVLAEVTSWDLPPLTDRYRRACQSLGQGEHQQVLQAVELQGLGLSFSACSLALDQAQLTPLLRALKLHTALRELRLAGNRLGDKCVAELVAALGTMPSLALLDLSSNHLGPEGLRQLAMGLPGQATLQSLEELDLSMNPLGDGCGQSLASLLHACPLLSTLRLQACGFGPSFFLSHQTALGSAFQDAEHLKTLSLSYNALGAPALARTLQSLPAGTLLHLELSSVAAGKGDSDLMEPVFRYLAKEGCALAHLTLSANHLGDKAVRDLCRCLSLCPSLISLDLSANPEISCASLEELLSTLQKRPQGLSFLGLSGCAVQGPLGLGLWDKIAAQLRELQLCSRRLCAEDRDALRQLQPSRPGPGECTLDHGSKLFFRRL
UniProt Q5JTV8: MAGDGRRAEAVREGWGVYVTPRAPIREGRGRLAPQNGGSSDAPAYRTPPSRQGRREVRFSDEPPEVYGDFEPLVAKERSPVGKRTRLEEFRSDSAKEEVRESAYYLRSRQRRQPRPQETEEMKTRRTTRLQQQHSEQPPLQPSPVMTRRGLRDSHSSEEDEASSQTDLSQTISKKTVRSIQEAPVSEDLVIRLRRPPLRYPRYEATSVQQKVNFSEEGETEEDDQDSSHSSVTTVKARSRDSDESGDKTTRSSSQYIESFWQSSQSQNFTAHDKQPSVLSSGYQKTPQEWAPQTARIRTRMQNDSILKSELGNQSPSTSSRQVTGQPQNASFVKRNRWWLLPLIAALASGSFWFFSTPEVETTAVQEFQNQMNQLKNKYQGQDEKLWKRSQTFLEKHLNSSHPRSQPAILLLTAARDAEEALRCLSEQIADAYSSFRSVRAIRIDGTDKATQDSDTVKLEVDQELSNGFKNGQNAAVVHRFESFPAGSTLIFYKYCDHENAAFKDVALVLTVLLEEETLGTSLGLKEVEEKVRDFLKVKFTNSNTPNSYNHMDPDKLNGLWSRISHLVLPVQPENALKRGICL
UniProt Q8NFZ5: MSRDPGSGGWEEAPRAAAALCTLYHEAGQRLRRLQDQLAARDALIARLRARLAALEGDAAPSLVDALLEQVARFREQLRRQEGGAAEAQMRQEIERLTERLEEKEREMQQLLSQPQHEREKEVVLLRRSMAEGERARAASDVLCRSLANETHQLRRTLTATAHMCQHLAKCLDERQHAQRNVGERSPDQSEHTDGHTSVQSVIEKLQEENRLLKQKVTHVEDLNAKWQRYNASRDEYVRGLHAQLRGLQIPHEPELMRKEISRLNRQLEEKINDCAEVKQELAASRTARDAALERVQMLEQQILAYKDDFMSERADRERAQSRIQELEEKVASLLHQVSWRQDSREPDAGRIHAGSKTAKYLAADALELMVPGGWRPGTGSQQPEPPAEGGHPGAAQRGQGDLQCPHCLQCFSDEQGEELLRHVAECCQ
UniProt Q86XT9, whole entry, looked up: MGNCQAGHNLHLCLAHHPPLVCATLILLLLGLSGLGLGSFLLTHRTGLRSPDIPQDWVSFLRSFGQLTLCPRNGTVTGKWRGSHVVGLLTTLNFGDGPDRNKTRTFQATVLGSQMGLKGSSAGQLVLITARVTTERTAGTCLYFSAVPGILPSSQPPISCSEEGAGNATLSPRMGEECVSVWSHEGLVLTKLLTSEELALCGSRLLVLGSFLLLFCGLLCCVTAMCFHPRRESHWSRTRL
UniProt Q2T9K0: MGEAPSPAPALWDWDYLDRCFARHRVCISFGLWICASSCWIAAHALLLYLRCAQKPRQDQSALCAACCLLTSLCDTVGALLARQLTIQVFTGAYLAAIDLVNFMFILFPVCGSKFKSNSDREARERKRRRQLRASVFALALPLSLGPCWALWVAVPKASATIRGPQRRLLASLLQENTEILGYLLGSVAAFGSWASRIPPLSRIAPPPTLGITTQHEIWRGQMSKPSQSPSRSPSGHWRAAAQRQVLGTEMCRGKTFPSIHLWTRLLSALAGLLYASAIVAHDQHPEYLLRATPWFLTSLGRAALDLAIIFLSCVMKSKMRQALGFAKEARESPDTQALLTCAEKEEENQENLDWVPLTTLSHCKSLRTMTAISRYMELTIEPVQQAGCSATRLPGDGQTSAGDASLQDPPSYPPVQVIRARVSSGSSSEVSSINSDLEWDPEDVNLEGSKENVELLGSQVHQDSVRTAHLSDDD

pictilisib = compound: CS(=O)(=O)N1CCN(Cc2cc3nc(-c4cccc5[nH]ncc45)nc(N4CCOCC4)c3s2)CC1 [pictilisib]
Summary of the method: as §1

crizotinib = compound: C[C@@H](Oc1cc(-c2cnn(C3CCNCC3)c2)cnc1N)c1c(Cl)ccc(F)c1Cl [crizotinib]
Summary of the method: as §1

[1] = compound: C[C@H](C1=CC=C(C=C1)C(=O)NC2=C3C=CNC3=NC=C2)N
Summary of the method: as §1

duvelisib = compound: C[C@H](Nc1ncnc2nc[nH]c12)c1cc2cccc(Cl)c2c(=O)n1-c1ccccc1 [duvelisib]
Summary of the method: as §1

gandotinib = compound: Cc1cc(Nc2cc(CN3CCOCC3)c3nc(C)c(Cc4ccc(Cl)cc4F)n3n2)n[nH]1 [gandotinib]
Summary of the method: as §1

tozasertib = compound: Cc1cc(Nc2cc(N3CCN(C)CC3)nc(Sc3ccc(NC(=O)C4CC4)cc3)n2)n[nH]1 [tozasertib]
Summary of the method: as §1

doramapimod = compound: Cc1ccc(-n2nc(C(C)(C)C)cc2NC(=O)Nc2ccc(OCCN3CCOCC3)c3ccccc23)cc1 [doramapimod]
Summary of the method: as §1

bafetinib = compound: Cc1ccc(NC(=O)c2ccc(CN3CC[C@H](N(C)C)C3)c(C(F)(F)F)c2)cc1Nc1nccc(-c2cncnc2)n1 [bafetinib]
Summary of the method: as §1

[2] = compound: Cc1cccc(CC(=O)N2CCc3c2ccc(-c2cn(C)c4ncnc(N)c24)c3F)n1
Summary of the method: as §1

dasatinib = compound: Cc1nc(Nc2ncc(C(=O)Nc3c(C)cccc3Cl)s2)cc(N2CCN(CCO)CC2)n1 [dasatinib]
Summary of the method: as §1

[3] = compound: Cn1cc(-c2ccc3c(c2)CCN3C(=O)Cc2cccc(C(F)(F)F)c2)c2c(N)ncnc21
Summary of the method: as §1

quisinostat = compound: Cn1cc(CNCC2CCN(c3ncc(C(=O)NO)cn3)CC2)c2ccccc21 [quisinostat]
Summary of the method: as §1

[4] = compound: NC(=O)Nc1cc(-c2cccc(F)c2)sc1C(=O)N[C@H]1CCCNC1
Summary of the method: as §1

[5] = compound: NC(=O)c1cnc(N[C@@H]2CCCC[C@@H]2N)nc1Nc1cccc(-n2nccn2)c1
Summary of the method: as §1

[6] = compound: NC1(c2ccc(-c3nc4ccn5c(=O)[nH]nc5c4cc3-c3ccccc3)cc2)CCC1
Summary of the method: as §1

nilotinib = compound: Cc1cn(-c2cc(NC(=O)c3ccc(C)c(Nc4nccc(-c5cccnc5)n4)c3)cc(C(F)(F)F)c2)cn1 [nilotinib]
Summary of the method: as §1

[7] = compound: Cc1nc(Nc2n[nH]c3c2CN(C(=O)N[C@H](CN(C)C)c2ccccc2)C3(C)C)c2sccc2n1
Summary of the method: as §1

[8] = compound: Cc1ncc(-c2ccnc(Nc3ccc(S(C)(=O)=O)cc3)n2)n1C(C)C
Summary of the method: as §1

tipifarnib = compound: Cn1cncc1[C@@](N)(c1ccc(Cl)cc1)c1ccc2c(c1)c(-c1cccc(Cl)c1)cc(=O)n2C [tipifarnib]
Summary of the method: as §1

Row | Target | log2 fold change (lapatinib) | log2 fold change (pictilisib) | log2 fold change (crizotinib) | log2 fold change [1] | log2 fold change (duvelisib) | log2 fold change (gandotinib) | log2 fold change (tozasertib) | log2 fold change (doramapimod) | log2 fold change (bafetinib) | log2 fold change [2] | log2 fold change (dasatinib) | log2 fold change [3] | log2 fold change (quisinostat) | log2 fold change [4] | log2 fold change [5] | log2 fold change [6] | log2 fold change (nilotinib) | log2 fold change [7] | log2 fold change [8] | log2 fold change (tipifarnib)
1 | TMEM230 isoform 2 (UniProt Q96A57) | inactive: -0.001 | inactive: -0.132 | inactive: 0.101 | inactive: 0.011 | inactive: -0.021 | inactive: 0.008 | inactive: 0.068 | inactive: 0.062 | inactive: 0.097 | inactive: 0.084 | inactive: 0.007 | inactive: 0.041 | inactive: -0.162 | inactive: 0.005 | inactive: -0.029 | inactive: -0.037 | – | – | – | –
2 | TNIK isoform 5 (UniProt Q9UKE5) | inactive: -0.098 | inactive: 0.046 | inactive: -0.035 | inactive: 0.051 | inactive: 0.009 | inactive: 0.025 | – | inactive: 0.311 | inactive: -0.055 | inactive: -0.02 | inactive: 0.187 | inactive: 0.019 | inactive: -0.218 | active: 0.539 | inactive: 0.019 | – | – | – | – | –
3 | TPCN1 isoform 3 (UniProt Q9ULQ1) | inactive: -0.06 | inactive: -0.121 | inactive: 0.024 | inactive: -0.096 | – | inactive: 0.047 | inactive: -0.053 | inactive: -0.034 | inactive: -0.037 | inactive: 0.028 | – | – | inactive: 0.012 | inactive: -0.026 | inactive: 0.049 | inactive: -0.044 | – | – | – | –
4 | TMEM41B (UniProt Q5BJD5) | inactive: -0.067 | inactive: 0.056 | inactive: 0.027 | inactive: -0.029 | inactive: 0.088 | inactive: -0.094 | inactive: -0.056 | inactive: -0.084 | inactive: 0.125 | inactive: 0.03 | inactive: 0.064 | inactive: 0.02 | inactive: 0.098 | inactive: -0.01 | inactive: 0.047 | inactive: 0.007 | – | – | – | –
5 | TMEM94 isoform 2 (UniProt Q12767) | inactive: 0.042 | inactive: -0.074 | inactive: 0.003 | – | inactive: 0.059 | – | inactive: 0.059 | inactive: -0.141 | inactive: -0.054 | – | inactive: 0.026 | inactive: -0.094 | inactive: 0.043 | inactive: 0.012 | inactive: 0.17 | inactive: -0.006 | – | – | – | –
6 | TOM1L1 (UniProt O75674) | inactive: -0.002 | inactive: -0.047 | inactive: -0.008 | inactive: -0.01 | inactive: -0.023 | inactive: 0.025 | inactive: -0.054 | inactive: 0 | inactive: -0.011 | inactive: 0.008 | inactive: -0.01 | inactive: -0.048 | inactive: -0.023 | inactive: 0.018 | inactive: -0.003 | inactive: -0.003 | inactive: 0 | inactive: 0.066 | inactive: 0.02 | inactive: 0.025
7 | TNNI3K isoform 1 (UniProt Q59H18) | inactive: 0.024 | inactive: 0.012 | – | inactive: -0.019 | inactive: 0.023 | inactive: -0.026 | inactive: -0.067 | inactive: 0.024 | inactive: -0.011 | inactive: 0.034 | inactive: -0.069 | inactive: -0.027 | inactive: -0.012 | inactive: 0.045 | inactive: -0.081 | inactive: -0.051 | inactive: 0.055 | inactive: -0.013 | inactive: -0.054 | inactive: -0.027
8 | TMPPE (UniProt Q6ZT21) | inactive: -0.007 | inactive: -0.07 | inactive: 0.036 | inactive: -0.026 | – | inactive: 0.077 | inactive: -0.051 | inactive: 0.018 | inactive: -0.047 | inactive: 0.009 | – | – | inactive: 0.026 | inactive: -0.024 | inactive: 0.007 | inactive: 0.043 | inactive: 0.031 | inactive: 0.035 | inactive: -0.108 | inactive: -0.05
9 | TONSL (UniProt Q96HA7) | inactive: -0.048 | inactive: -0.115 | inactive: -0.038 | inactive: -0.063 | inactive: 0.076 | inactive: -0.064 | inactive: -0.035 | inactive: 0.057 | inactive: -0.035 | inactive: -0.007 | inactive: 0.019 | inactive: -0.036 | inactive: -0.083 | inactive: 0.065 | inactive: 0.047 | inactive: -0.007 | inactive: -0.011 | inactive: 0.008 | inactive: -0.018 | inactive: -0.059
10 | TOR1AIP1 (UniProt Q5JTV8) | inactive: 0.031 | inactive: 0.02 | – | – | inactive: -0.044 | – | – | – | inactive: 0.096 | – | inactive: 0.123 | inactive: -0.057 | – | – | inactive: 0.079 | inactive: 0.115 | inactive: 0.068 | inactive: -0.136 | inactive: 0.224 | inactive: 0.137
11 | TNIP2 (UniProt Q8NFZ5) | inactive: -0.013 | inactive: -0.034 | inactive: -0.033 | inactive: 0.024 | – | inactive: 0.13 | inactive: -0.044 | inactive: 0.008 | inactive: 0.026 | inactive: 0.019 | – | – | inactive: -0.274 | inactive: 0.25 | inactive: 0.104 | inactive: 0.01 | inactive: 0.083 | inactive: -0.031 | inactive: 0.07 | inactive: 0.212
12 | TMEM219 (UniProt Q86XT9) | inactive: 0.043 | inactive: -0.027 | inactive: -0.024 | inactive: -0.092 | inactive: -0.037 | inactive: 0.014 | inactive: 0.035 | inactive: 0.004 | inactive: -0.047 | inactive: 0.002 | inactive: 0.035 | inactive: -0.028 | inactive: -0.047 | inactive: 0.051 | inactive: -0.038 | inactive: -0.018 | inactive: -0.03 | inactive: -0.085 | inactive: -0.064 | inactive: -0.09
13 | TMEM44 (UniProt Q2T9K0) | inactive: -0.103 | inactive: -0.136 | – | – | inactive: 0.233 | – | inactive: -0.009 | – | inactive: -0.141 | – | inactive: 0.134 | inactive: 0.057 | – | – | inactive: 0.076 | – | – | – | – | –

Part of the list above, as a markdown table:

| Row | Target | log2 fold change (lapatinib) | log2 fold change (pictilisib) | log2 fold change (crizotinib) | log2 fold change [1] | log2 fold change (duvelisib) | log2 fold change (gandotinib) | log2 fold change (tozasertib) | log2 fold change (doramapimod) | log2 fold change (bafetinib) | log2 fold change [2] | log2 fold change (dasatinib) | log2 fold change [3] | log2 fold change (quisinostat) | log2 fold change [4] | log2 fold change [5] | log2 fold change [6] | log2 fold change (nilotinib) | log2 fold change [7] | log2 fold change [8] | log2 fold change (tipifarnib) |
| --- | --- | --- | --- | --- | --- | --- | --- | --- | --- | --- | --- | --- | --- | --- | --- | --- | --- | --- | --- | --- | --- |
| 5 | TMEM94 isoform 2 (UniProt Q12767) | inactive: 0.042 | inactive: -0.074 | inactive: 0.003 | – | inactive: 0.059 | – | inactive: 0.059 | inactive: -0.141 | inactive: -0.054 | – | inactive: 0.026 | inactive: -0.094 | inactive: 0.043 | inactive: 0.012 | inactive: 0.17 | inactive: -0.006 | – | – | – | – |
| 6 | TOM1L1 (UniProt O75674) | inactive: -0.002 | inactive: -0.047 | inactive: -0.008 | inactive: -0.01 | inactive: -0.023 | inactive: 0.025 | inactive: -0.054 | inactive: 0 | inactive: -0.011 | inactive: 0.008 | inactive: -0.01 | inactive: -0.048 | inactive: -0.023 | inactive: 0.018 | inactive: -0.003 | inactive: -0.003 | inactive: 0 | inactive: 0.066 | inactive: 0.02 | inactive: 0.025 |
